{"source": "patent US20250346630A1", "about": "“Engineering Peptides Using Peptide Epitope Linker Evolution” (AGENCY FOR SCIENCE, TECHNOLOGY AND RESEARCH, priority 2022, published 2025)", "key": {"[1]": {"target": "MDM2", "assay": "M13 linear 12mer phage selection on the control protein, NGS abundance heat map [CONT.) D]"}, "[2]": {"target": "KRas", "assay": "M13 linear 12mer phage selection on the control protein, NGS abundance heat map [CONT.) D]"}}, "note": "These are yes or no findings as the source states them, for the method shown."}
{"binder": "SLTYTREFLRSL", "note": "[…]", "values": [{"measurement": "binding", "setting": "[1]", "value": "no binding"}, {"measurement": "binding", "setting": "[2]", "value": "no binding"}]}
